Test results from doi:10.1101/2023.11.08.566322.

Chains of the proteins cited; added tags and fusions are not shown.
UniProt Q9CW03: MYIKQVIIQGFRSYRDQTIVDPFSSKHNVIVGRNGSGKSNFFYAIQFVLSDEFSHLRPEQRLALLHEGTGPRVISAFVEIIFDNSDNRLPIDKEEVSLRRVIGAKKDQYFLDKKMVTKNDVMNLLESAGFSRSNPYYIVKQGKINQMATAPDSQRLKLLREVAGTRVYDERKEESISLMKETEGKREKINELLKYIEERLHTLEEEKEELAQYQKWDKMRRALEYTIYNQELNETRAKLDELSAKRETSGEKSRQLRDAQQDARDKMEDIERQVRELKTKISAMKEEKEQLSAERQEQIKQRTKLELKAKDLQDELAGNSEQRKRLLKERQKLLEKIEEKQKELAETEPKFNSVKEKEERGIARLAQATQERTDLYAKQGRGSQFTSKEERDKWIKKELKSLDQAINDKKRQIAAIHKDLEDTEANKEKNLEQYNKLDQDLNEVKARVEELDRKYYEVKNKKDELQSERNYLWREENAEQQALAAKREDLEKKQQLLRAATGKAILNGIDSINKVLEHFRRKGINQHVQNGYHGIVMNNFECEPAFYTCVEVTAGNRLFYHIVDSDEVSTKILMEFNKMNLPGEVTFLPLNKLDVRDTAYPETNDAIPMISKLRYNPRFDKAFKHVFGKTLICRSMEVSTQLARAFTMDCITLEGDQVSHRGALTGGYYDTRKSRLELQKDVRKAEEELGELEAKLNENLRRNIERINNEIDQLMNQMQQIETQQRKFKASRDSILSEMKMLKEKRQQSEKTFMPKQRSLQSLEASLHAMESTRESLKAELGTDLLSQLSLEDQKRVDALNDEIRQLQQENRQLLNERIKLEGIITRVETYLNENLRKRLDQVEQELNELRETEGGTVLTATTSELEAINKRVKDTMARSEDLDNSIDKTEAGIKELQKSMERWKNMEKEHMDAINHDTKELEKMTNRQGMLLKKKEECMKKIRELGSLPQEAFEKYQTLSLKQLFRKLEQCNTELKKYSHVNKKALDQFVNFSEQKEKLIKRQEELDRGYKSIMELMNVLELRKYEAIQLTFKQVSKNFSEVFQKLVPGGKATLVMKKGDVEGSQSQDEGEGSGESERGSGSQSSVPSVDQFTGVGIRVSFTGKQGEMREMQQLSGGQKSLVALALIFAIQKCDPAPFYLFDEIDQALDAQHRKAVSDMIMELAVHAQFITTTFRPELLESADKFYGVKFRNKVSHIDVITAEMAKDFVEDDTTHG

T1: HNF4α (mouse (endogenous in villus cells of C57BL/6 mice)) (UniProt P49698)
T1 sequence: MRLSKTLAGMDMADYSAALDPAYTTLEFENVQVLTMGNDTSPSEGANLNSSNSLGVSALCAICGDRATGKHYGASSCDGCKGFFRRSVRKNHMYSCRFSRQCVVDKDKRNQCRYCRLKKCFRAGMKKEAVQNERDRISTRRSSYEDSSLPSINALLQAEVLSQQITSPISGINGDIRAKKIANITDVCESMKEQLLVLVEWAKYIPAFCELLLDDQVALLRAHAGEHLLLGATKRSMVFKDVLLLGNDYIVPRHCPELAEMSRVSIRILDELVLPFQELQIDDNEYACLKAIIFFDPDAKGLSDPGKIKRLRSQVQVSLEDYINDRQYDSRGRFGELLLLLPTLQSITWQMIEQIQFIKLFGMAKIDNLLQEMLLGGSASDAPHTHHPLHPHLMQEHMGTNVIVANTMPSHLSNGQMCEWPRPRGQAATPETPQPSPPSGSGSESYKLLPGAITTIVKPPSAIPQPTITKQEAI

B1: SMC1A (protein, UniProt Q9CU62 1-1233)
chain: MGFLKLIEIENFKSYKGRQIIGPFQRFTAIIGPNGSGKSNLMDAISFVLGEKTSNLRVKTLRDLIHGAPVGKPAANRAFVSMVYSEEGAEDRTFARVIVGGSSEYKINNKVVQLHEYSEELEKLGILIKARNFLVFQGAVESIAMKNPKERTALFEEISRSGELAQEYDKRKKEMVKAEEDTQFNYHRKKNIAAERKEAKQEKEEADRYQRLKDEVVRAQVQLQLFKLYHNEVEIEKLNKELASKNKEIEKDKKRMDKVEDELKEKKKELGKMMREQQQIEKEIKEKDSELNQKRPQYIKAKENTSHKIKKLEAAKKSLQNAQKHYKKRKGDMDELEKEMLSVEKARQEFEERMEEESQSQGRDLTLEENQVKKYHRLKEEASKRAATLAQELEKFNRDQKADQDRLDLEERKKVETEAKIKQKLREIEENQKRIEKLEEYITTSKQSLEEQKKLEGELTEEVEMAKRRIDEINKELNQVMEQLGDARIDRQESSRQQRKAEIMESIKRLYPGSVYGRLIDLCQPTQKKYQIAVTKVLGKNMDAIIVDSEKTGRDCIQYIKEQRGEPETFLPLDYLEVKPTDEKLRELKGAKLVIDVIRYEPPHIKKALQYACGNALVCDNVEDARRIAFGGHQRHKTVALDGTLFQKSGVISGGASDLKAKARRWDEKAVDKLKEKKERLTEELKEQMKAKRKEAELRQVQSQAHGLQMRLKYSQSDLEQTKTRHLALNLQEKSKLESELANFGPRINDIKRIIQSREREMKDLKEKMNQVEDEVFEEFCREIGVRNIREFEEEKVKRQNEIAKKRLEFENQKTRLGIQLDFEKNQLKEDQDKVHMWEQTVKKDENEIEKLKKEEQRHMKIIDETMAQLQDLKNQHLAKKSEVNDKNHEMEEIRKKLGGANKEMTHLQKEVTAIETKLEQKRSDRHNLLQACKMQDIKLPLSKGTMDDISQEEGSSQGEESVSGSQRTSSIYAREALIEIDYGDLCEDLKDAQAEEEIKQEMNTLQQKLNEQQSVLQRIAAPNMKAMEKLESVRDKFQETSDEFEAARKRAKKAKQAFEQIKKERFDRFNACFESVATNIDEIYKALSRNSSAQAFLGPENPEEPYLDGINYNCVAPGKRFRPMDNLSGGEKTVAALALLFAIHSYKPAPFFVLDEIDAALDNTNIGKVANYIKEQSTCNFQAIVISLKEEFYTKAESLIGVYPEQGDCVISKVLTFDLTKYPDANPNPNEQ

Biological target: T1, HNF4α (mouse (endogenous in villus cells of C57BL/6 mice))
Assay: affinity purification with mass spectrometry

| Molecule | binding |
| --- | --- |
| SMC3 (from UniProt Q9CW03 1-1217) | binds |
| B1 | binds |

No constants are given. Whether binding was seen depends on the method and setting. Binding seen in cells or lysates may run through a third protein. Here binding means that the protein was enriched with, or labelled near, the bait; the list need not be complete.
